Experimental data: PubChem BioAssay AID1347423 (Functional Genomics Laboratory (NCATS/FGL), 2020)
Screen size: about 52,000 sequences; about 210 (0.4%) were called active.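 Rule for the calls: active = gene whose silencing raises cell survival under the drug, median off-target-corrected z-score across its silencing RNAs 2 or more; inactive = the rest.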 The list shows a part of the results.

assay: Resistance to Poly (ADP-Ribose) Polymerase inhibitor: Gene Identification via Genome-wide siRNA Screen; conditions: mouse BRCA2 R2336H ES cells, olaparib, CellTiter-Glo viability; stronger effect = higher value
Outline: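 Genome-wide siRNA screen (3 siRNAs/gene, 20 nM) in mouse ES cells carrying hypomorphic BRCA2 R2336H; olaparib 500 nM added 48 h post-transfection, CellTiter-Glo viability 72 h later. Normalized to plate-median negative control; MAD z-scores, gene median, seed-adjusted.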

Sequence	z-score
CCACUUAUAUUUGAUCUCATT against 4921524P20Rik	inactive: -2.26
GCCUGAAUUCCACUACUCGTT against Def8	inactive: -0.111
CCGUAAUUGAUUCUUUACUTT against Kif3a	active: 2.25
GGUGUGAGCUAUGUGUACATT against V1rd2	inactive: -1.42
GGAUCAUUAGAUAAGUCAATT against Xpo4	inactive: 0.886
CCCUUCGAUAACCAGAUCCTT against Utf1	inactive: 0.94
GGUCGAUUGAAGUGGAAAATT against Sh3kbp1	inactive: 1.08
GGAGCAGUUUGAACGAAUCTT against Aldh1b1	inactive: 0.189
CCCAUGUCGUGACAUCACATT against Slc26a7	inactive: -0.518
GCUGUGAUAGUCAAAAAACTT against Gm1960	inactive: 1.16
GAUUCUCCAUUGCCCAAUGTT against 2310069N01Rik	inactive: -0.037
GGGUAUAAGAAAACUGGCATT against Rad18	inactive: 0.00125
GGACAGAGUCUUCAAAACGTT against 2310010B21Rik	inactive: 0.00643
CCCUACUGUUAUUCAAACCTT against Rhoj	inactive: 0.319
GCACAUUGUCUAGUAGUAATT against Suhw4	inactive: -0.345
GGGAAGAAACAAAGCUUUUTT against Olfr267	inactive: -0.344
GCCGGAUCCUAAAGAGUCATT against 2810433K01Rik	inactive: -1.12
GCUAUGCAGAGGAGUAUGCTT against BC019755	inactive: 0.546
GGCUUGCUGAUUAAAGAUGTT against Strbp	inactive: -0.517
GGUUUUUGGAUUCAAAGCATT against Pten	inactive: 0.192
GGACACCAUAUGGUUAGCUTT against 4930427A07Rik	inactive: -3.36
GGCUAGCAUCACAUGACUUTT against 4930438D12Rik	inactive: -0.972
GGAAGAAGAAAGAUUCAAATT against Bcan	inactive: 0.264
GGCUAUGCAUACAUAUAAATT against Slc24a2	inactive: 0.00313
GGGAGGACAGGUUCCUUAATT against Ndufa9	inactive: -0.582
GGAAUUUUAACACCUUUAGTT against Twist1	inactive: -0.643

Sequence	z-score
GCCUGAUUUUACUUAAAAGTT against E130307C13	inactive: 0.85
GGAAAUUGUGGACAUGAUCTT against Sult1c1	inactive: -0.561
GGAAGAAGAGUUCAAAGAATT against Srrm2	inactive: 2.33
GGCCAAGAAUGAGCCAGUATT against Lrp1	inactive: 1.57
GGAUACAAGAUACCAUUGATT against Slc27a2	inactive: -1.5
GGAGAUUGAUGAGCAUGCCTT against Rab40b	inactive: 0.456
GGUGGACGAUUGAAAGUGATT against Lbx2h	inactive: -0.413
GCAUGGACAGUUAUGUAUATT against Slc5a6	inactive: 0.33
GCCACUCGAUAAUGAGUGGTT against BC025546	inactive: 0.733
GCUUCCAGUCAGUGGUUACTT against Rara	inactive: -0.607
GGAAAAAGCAAUCAGACACTT against Pdcd7	inactive: 0.48
GCCUAAGAACAUGCUUUACTT against 1700023B02Rik	inactive: -0.159
CUUGGUGACAGACAAUGUCTT against H2-D1	inactive: 0.399
GGAAUUUAAAUUAUCCCUGTT against 1110033F04Rik	inactive: -0.984
CGUGAUGCUGUAAAUAGUUTT against AI606181	inactive: 0.28
GGUACCAUCAGAACCUGUCTT against Pop5	inactive: -0.14
GGUGCAUCACUUCAUGGAATT against Timm8b	inactive: 1.58
GGUCUUGGGUAUUGUCGUGTT against Gpr56	inactive: 0.00956
CCAGCAUUAUCCAUAUCAATT against Nat2	inactive: -0.0274
CCAGAUUGUUGUGGAAGUATT against Zfy1	inactive: -0.754
CGUCUAGGAAGGAAACAGGTT against Stk32a	inactive: -0.987
GGUCUUUGCUGUGCACUUUTT against Olfr1214	inactive: -0.904
CCCAGUGACUAAUGGAUAUTT against Dsg1b	inactive: 0.217
GGGACUUCUGAUUAAAUUUTT against A030013N09Rik	inactive: 0.164
GGCGAAAUGGUAAACCGAGTT against Gpr64	inactive: 1.75
GGCUCUAUGUCUUUGGAGGTT against Klhdc1	inactive: 0.309

Given bar-delimited: entries from further up.
Sequence | z-score
GCCUGAUUUUACUUAAAAGTT against E130307C13 | inactive: 0.85
GGAAAUUGUGGACAUGAUCTT against Sult1c1 | inactive: -0.561
GGAAGAAGAGUUCAAAGAATT against Srrm2 | inactive: 2.33
GGCCAAGAAUGAGCCAGUATT against Lrp1 | inactive: 1.57

More records follow.

Sequence	z-score
GGUGGUUGAGGAAUGUAAGTT against Kifap3	inactive: -1.23
GCAAGCCCUGGAAGAAUUATT against Cml4	inactive: 2.75
GGGUCACUUUAUGCAUCUUTT against B930006L02Rik	inactive: -2.05
GGACCUUCGUGAGAAUUUCTT against Mst1	inactive: 1.38
GGAAGAGCGAGAGACCUUGTT against Tcf1	inactive: -0.981
GGAGAGUUCAGACAAGGCATT against Irx2	inactive: 1.42
CCUCAGUUUUGCAUAUUAUTT against BC030335	inactive: -0.364
CCAUUUCUUUCAGUGGCUGTT against Olfr48	inactive: 0.827
GCAAAUCGAUAUCAAACACTT against Slc30a1	inactive: 0.0693
GGAACUUCAUUGAACUAUGTT against 4732479N06Rik	inactive: 1.11
GGUCGAUCACGUCAUCGAATT against Unc5a	inactive: 0.93
GCCUGAUCUCUUCCCAUCATT against Plunc	inactive: 0.158
GGACUUCUACAUUGAACUUTT against 2410080H04Rik	inactive: 0.582
GCACGGUGUGUACAACCCUTT against Mdh2	inactive: 0.236
GCUACCACAGGAUAUCCUUTT against Mcf2	inactive: 0.4
GGAAGCUACAGCAACAUAATT against Acvrinp1	inactive: -0.381
GGAGAAAGUCUCUCUUAGUTT against D11Ertd461e	inactive: -1.15
GGGAAGAAGUUUAAAAGAATT against Rdh11	inactive: -1.14
GACAGAAUGCCAUUUCCUATT against Olfr902	inactive: 0.82
GGCCAAUCCACGAAAGCAUTT against 6330569M22Rik	inactive: -0.85
GCCAGAUGGUAGGCGAUUATT against 5430432N15Rik	inactive: -0.571
GGAGCAGAAUCCUUAUCGATT against Trpv5	inactive: 0.231
GGUUGCAGAUUUCCGAAGATT against D5Ertd40e	inactive: -0.0765
GGGUACAGUCCGAUACAGUTT against AK129375	inactive: -1.89
GGAGAAAUCGAUUCCCAUUTT against Olfr1132	inactive: 1.03
GGUCAUUCCCAUUAAACAGTT against Noc4	inactive: 0.321

Sequence	z-score
GCUUGUUGGUGGUCUCCUGTT against Ecg2	inactive: -2.2
GGUACACCACGAAUGCACUTT against Epha1	inactive: 0.207
GGCGCACACUUUCACCUAATT against 9030409E16Rik	inactive: -0.974
GGUUCUAGGCAGUUUGAUATT against Mesdc1	inactive: 0.0476
GGAAGUGGUGGACAAAGUGTT against S100b	inactive: -1.18
GGAUGUGACUAAAGUCAACTT against 1600029D21Rik	inactive: 2.32
GGAUGUGCGGAAGUUCAAATT against Centb5	inactive: 0.167
GGGUUUUUAAGUUCACUGATT against St7l	inactive: 0.0114
GGCAUGAUAACUUGAAAUGTT against Dnahc11	inactive: 0.513
GCGAUUGUCAUUCUCUUUUTT against Jak3	inactive: 0.668
CCUUGUAAUGUGAUUCUGGTT against Ctsr	inactive: 0.991
CAUUGGUGACAAUAAGUAUTT against Ssx9	inactive: 0.26
GGACACCGGGAUGUGCAAATT against Pglyrp1	inactive: 1.22
GGUUCAAGUGCAUUGCUUCTT against Rab34	inactive: -0.413
GGUCUUCCUAAGAGAGACATT against Ostb	inactive: 2.94
GGACAUCUCUACAAAUUACTT against Tra1	inactive: 0.87
GGCCUAAGAAAACUCCAGCTT against Usmg5	inactive: -0.17
GCAGAACCGCAUCAUAUUCTT against Ucn	inactive: 0.73
GGUGGAUGAAACUCAGUUUTT against Aldh2	inactive: -0.493
GGGUAACAUGAAAGUGAUCTT against Mybbp1a	inactive: 1.67
GCCCAAGGAUGAACUGCAGTT against Olfr108	inactive: -1.41
GGAUGAGACCAUCUGCCAATT against Adra1a	inactive: 0.27
GGUGGUGCCAAGAUGUUGUTT against 1100001A21Rik	inactive: 0.607
GAGUCAUUACACCAGACAGTT against LOC433384	inactive: -1.82
GGUCUGUUAUGCAGAAUGCTT against 4922503N01Rik	inactive: 0.104
GUGUCCUGAACACAGCCACTT against Olfr638	inactive: 0.682
